# Test results: article PMC4476799, “Englerin A Agonizes the TRPC4/C5 Cation Channels to Inhibit Tumor Cell Line Proliferation” (PLoS ONE, 2015)
# Further values from the same series stand in other lists.
# Test system: cancer cell lines from the cancer cell line encyclopedia (CCLE)
# Assay: Cell line profiling (CLiP) proliferation experiment
# Assay type: cell-based
# Design: ACTIVITY_AREA: scale not given here; AMAX: unit not given here
# Method: Compound profiling experiment and data analysis was performed as previously described. Data was imported and plotted using the Tibco Spotfire DXP application. Lines were categorized as sensitive, intermediate and refractory as follows: Amax<-40 & Inflection Point <2 ~ Sensitive, Amax>-20 & Inflection Point >10 ~ Refractory, all else were called Intermediate. Cancer Cell line HG-U133 Plus 2 data was processed and normalized as described. […] Five sets of refractory cell lines were generated from the pool of refractory cell lines trying to match the lineage composition of the set of sensitive cell lines. The limma package was used as previously described to perform the statistical comparison.
# [1] = NCI-H196, lung, small_cell_carcinoma
# [2] = NCI-H226, lung, squamous_cell_carcinoma
# [3] = NCI-H358, lung, bronchioloalveolar_adenocarcinoma
# [4] = NCI-H460, lung, large_cell_carcinoma
# [5] = NCI-H520, lung, squamous_cell_carcinoma
# [6] = NCI-H596, lung, mixed_adenosquamous_carcinoma
# [7] = NCI-H647, lung, mixed_adenosquamous_carcinoma
# [8] = NCI-H650, lung, bronchioloalveolar_adenocarcinoma
# [9] = NCI-H661, lung, large_cell_carcinoma
# [10] = NCI-H716, large_intestine, adenocarcinoma
# [11] = NCI-H810, lung, large_cell_carcinoma
# [12] = NCI-H841, lung, small_cell_carcinoma
# [13] = NCI-H1792, lung, adenocarcinoma
# [14] = NCI-H1793, lung, adenocarcinoma
# [15] = NCI-H1869, lung, squamous_cell_carcinoma
# [16] = NCI-H1944, lung, adenocarcinoma
# [17] = NCI-H1975, lung, adenocarcinoma
# [18] = NCI-H2023, lung, adenocarcinoma
# [19] = NCI-H2073, lung, adenocarcinoma
# [20] = NCI-H2106, lung, non_small_cell_carcinoma
# [21] = NCI-H2122, lung, adenocarcinoma
# [22] = NCI-H2126, lung, adenocarcinoma
# [23] = NCI-H2170, lung, squamous_cell_carcinoma
# [24] = NCI-H2172, lung, non_small_cell_carcinoma
# [25] = NCI-H2330, lung, small_cell_carcinoma
# [26] = NCI-H2405, lung, adenocarcinoma
# [27] = NCI-H3255, lung, adenocarcinoma
# [28] = NUGC-4, stomach, signet_ring_adenocarcinoma
# [29] = OC 314, ovary, serous_carcinoma
# [30] = OCI-AML2, haematopoietic_and_lymphoid_tissue, acute_myeloid_leukaemia
smiles,measurement,setting,value
CC(C)[C@@]12C[C@@H](O)[C@@](C)(O1)[C@@H]1CC[C@@H](C)[C@H]1[C@@H]2OC(=O)/C=C/c1ccccc1 [Englerin B],AMAX,NCI-H146 cells,-5.12
same,RESPONSE,NCI-H146 cells,REFRACTORY
same,ACTIVITY_AREA,[1],25.48
same,AMAX,[1],-3.26
same,RESPONSE,[1],REFRACTORY
same,ACTIVITY_AREA,[2],84.84
same,AMAX,[2],-41.44
same,RESPONSE,[2],INTERMEDIATE
same,ACTIVITY_AREA,[3],28.35
same,AMAX,[3],-65.38
same,RESPONSE,[3],INTERMEDIATE
same,ACTIVITY_AREA,"NCI-H441, lung, adenocarcinoma",12.16
same,AMAX,"NCI-H441, lung, adenocarcinoma",-29.95
same,RESPONSE,"NCI-H441, lung, adenocarcinoma",INTERMEDIATE
same,ACTIVITY_AREA,[4],22.87
same,AMAX,[4],-32.1
same,RESPONSE,[4],INTERMEDIATE
same,ACTIVITY_AREA,[5],15.26
same,AMAX,[5],-40.14
same,RESPONSE,[5],INTERMEDIATE
same,ACTIVITY_AREA,NCI-H520 cells,15.26
same,AMAX,NCI-H520 cells,-40.14
same,RESPONSE,NCI-H520 cells,INTERMEDIATE
same,ACTIVITY_AREA,[6],29.87
same,AMAX,[6],-8.32
same,RESPONSE,[6],REFRACTORY
same,ACTIVITY_AREA,NCI-H596 cells,29.87
same,AMAX,NCI-H596 cells,-8.32
same,RESPONSE,NCI-H596 cells,REFRACTORY
same,ACTIVITY_AREA,[7],65.46
same,AMAX,[7],-63.95
same,RESPONSE,[7],INTERMEDIATE
same,ACTIVITY_AREA,[8],45.05
same,AMAX,[8],-79.38
same,RESPONSE,[8],INTERMEDIATE
same,ACTIVITY_AREA,NCI-H650 cells,45.05
same,AMAX,NCI-H650 cells,-79.38
same,RESPONSE,NCI-H650 cells,INTERMEDIATE
same,ACTIVITY_AREA,[9],26.82
same,AMAX,[9],-36.56
same,RESPONSE,[9],INTERMEDIATE
same,ACTIVITY_AREA,NCI-H661 cells,26.82
same,AMAX,NCI-H661 cells,-36.56
same,RESPONSE,NCI-H661 cells,INTERMEDIATE
same,ACTIVITY_AREA,[10],14.18
same,AMAX,[10],-50.31
same,RESPONSE,[10],INTERMEDIATE
same,ACTIVITY_AREA,NCI-H716 cells,14.18
same,AMAX,NCI-H716 cells,-50.31
same,RESPONSE,NCI-H716 cells,INTERMEDIATE
same,ACTIVITY_AREA,"NCI-H727, lung, NS",5.2
same,AMAX,"NCI-H727, lung, NS",5.53
same,RESPONSE,"NCI-H727, lung, NS",REFRACTORY
same,ACTIVITY_AREA,[11],14.12
same,AMAX,[11],-56.53
same,RESPONSE,[11],INTERMEDIATE
same,ACTIVITY_AREA,"NCI-H838, lung, adenocarcinoma",25.71
same,AMAX,"NCI-H838, lung, adenocarcinoma",-49.02
same,RESPONSE,"NCI-H838, lung, adenocarcinoma",INTERMEDIATE
same,ACTIVITY_AREA,NCI-H838 cells,25.71
same,AMAX,NCI-H838 cells,-49.02
same,RESPONSE,NCI-H838 cells,INTERMEDIATE
same,ACTIVITY_AREA,[12],38.09
same,AMAX,[12],-87.59
same,RESPONSE,[12],INTERMEDIATE
same,ACTIVITY_AREA,NCI-H1437 cells,17.29
same,AMAX,NCI-H1437 cells,-45.72
same,RESPONSE,NCI-H1437 cells,INTERMEDIATE
same,ACTIVITY_AREA,NCI-H1573 cells,188.17
same,AMAX,NCI-H1573 cells,-69.31
same,RESPONSE,NCI-H1573 cells,INTERMEDIATE
same,ACTIVITY_AREA,NCI-H1581 cells,35.15
same,AMAX,NCI-H1581 cells,-92.8
same,RESPONSE,NCI-H1581 cells,INTERMEDIATE
same,ACTIVITY_AREA,NCI-H1650 (lung),37.78
same,AMAX,NCI-H1650 (lung),-54.12
same,RESPONSE,NCI-H1650 (lung),INTERMEDIATE
same,ACTIVITY_AREA,NCI-H1651 cells,18.25
same,AMAX,NCI-H1651 cells,-33.21
same,RESPONSE,NCI-H1651 cells,INTERMEDIATE
same,ACTIVITY_AREA,[13],40.56
same,AMAX,[13],-58.43
same,RESPONSE,[13],INTERMEDIATE
same,ACTIVITY_AREA,[14],61.94
same,AMAX,[14],-45.66
same,RESPONSE,[14],INTERMEDIATE
same,ACTIVITY_AREA,[15],89.5
same,AMAX,[15],-43.09
same,RESPONSE,[15],INTERMEDIATE
same,ACTIVITY_AREA,NCI-H1869 cells,89.5
same,AMAX,NCI-H1869 cells,-43.09
same,RESPONSE,NCI-H1869 cells,INTERMEDIATE
same,ACTIVITY_AREA,[16],49.5
same,AMAX,[16],-75.02
same,RESPONSE,[16],INTERMEDIATE
same,ACTIVITY_AREA,[17],14.51
same,AMAX,[17],-27.94
same,RESPONSE,[17],INTERMEDIATE
same,ACTIVITY_AREA,NCI-H1975 cells,14.51
same,AMAX,NCI-H1975 cells,-27.94
same,RESPONSE,NCI-H1975 cells,INTERMEDIATE
same,ACTIVITY_AREA,[18],80.88
same,AMAX,[18],-75.61
same,RESPONSE,[18],INTERMEDIATE
same,ACTIVITY_AREA,[19],37.97
same,AMAX,[19],-56.11
same,RESPONSE,[19],INTERMEDIATE
same,ACTIVITY_AREA,[20],11.07
same,AMAX,[20],-48.52
same,RESPONSE,[20],INTERMEDIATE
same,ACTIVITY_AREA,[21],59.74
same,AMAX,[21],-36.73
same,RESPONSE,[21],INTERMEDIATE
same,ACTIVITY_AREA,[22],14.2
same,AMAX,[22],-49.33
same,RESPONSE,[22],INTERMEDIATE
same,ACTIVITY_AREA,NCI-H2126 cells,14.2
same,AMAX,NCI-H2126 cells,-49.33
same,RESPONSE,NCI-H2126 cells,INTERMEDIATE
same,ACTIVITY_AREA,[23],17.29
same,AMAX,[23],-44.7
same,RESPONSE,[23],INTERMEDIATE
same,ACTIVITY_AREA,[24],44.13
same,AMAX,[24],-55.3
same,RESPONSE,[24],INTERMEDIATE
same,ACTIVITY_AREA,[25],44.98
same,AMAX,[25],-45.58
same,RESPONSE,[25],INTERMEDIATE
same,ACTIVITY_AREA,[26],32.39
same,AMAX,[26],-42.88
same,RESPONSE,[26],INTERMEDIATE
same,ACTIVITY_AREA,"NCI-H2452, pleura, NS",32.7
same,AMAX,"NCI-H2452, pleura, NS",-2.13
same,RESPONSE,"NCI-H2452, pleura, NS",REFRACTORY
same,ACTIVITY_AREA,[27],13.21
same,AMAX,[27],-56.75
same,RESPONSE,[27],INTERMEDIATE
same,ACTIVITY_AREA,NCI-H3255 cells,13.21
same,AMAX,NCI-H3255 cells,-56.75
same,RESPONSE,NCI-H3255 cells,INTERMEDIATE
same,ACTIVITY_AREA,"NUGC-3, stomach, NS",62.26
same,AMAX,"NUGC-3, stomach, NS",-47.92
same,RESPONSE,"NUGC-3, stomach, NS",INTERMEDIATE
same,ACTIVITY_AREA,NUGC-3 cells,62.26
same,AMAX,NUGC-3 cells,-47.92
same,RESPONSE,NUGC-3 cells,INTERMEDIATE
same,ACTIVITY_AREA,[28],16.21
same,AMAX,[28],-60.16
same,RESPONSE,[28],INTERMEDIATE
same,ACTIVITY_AREA,NUGC-4 cells,16.21
same,AMAX,NUGC-4 cells,-60.16
same,RESPONSE,NUGC-4 cells,INTERMEDIATE
same,ACTIVITY_AREA,"OAW42, ovary, adenocarcinoma",29.5
same,AMAX,"OAW42, ovary, adenocarcinoma",1.81
same,RESPONSE,"OAW42, ovary, adenocarcinoma",REFRACTORY
same,ACTIVITY_AREA,OAW42 cells,29.5
same,AMAX,OAW42 cells,1.81
same,RESPONSE,OAW42 cells,REFRACTORY
same,ACTIVITY_AREA,[29],19.97
same,AMAX,[29],-21.14
same,RESPONSE,[29],INTERMEDIATE
same,ACTIVITY_AREA,OC 314 cells,19.97
same,AMAX,OC 314 cells,-21.14
same,RESPONSE,OC 314 cells,INTERMEDIATE
same,ACTIVITY_AREA,"OC 316, ovary, adenocarcinoma",40.59
same,AMAX,"OC 316, ovary, adenocarcinoma",-6.47
same,RESPONSE,"OC 316, ovary, adenocarcinoma",REFRACTORY
same,ACTIVITY_AREA,[30],39.6
same,AMAX,[30],-90.91
same,RESPONSE,[30],INTERMEDIATE
same,ACTIVITY_AREA,OCI-AML2 cells,39.6
same,AMAX,OCI-AML2 cells,-90.91
